Cleaved PARP after 72 h of treatment

Data from the primary screen of doi:10.1371/journal.pone.0140310, rounded.

Every entry is a combination with U73122 at 2 µM: COc1ccc2c(c1)CCC1C2CCC2(C)C(NCCCCCCN3C(=O)C=CC3=O)CCC12 (configuration not stated)

Drug key:
indole-3-carbinol, 4 µM: OCc1c[nH]c2ccccc12
vismodegib, 5 µM: CS(=O)(=O)c1ccc(C(=O)Nc2ccc(Cl)c(-c3ccccn3)c2)c(Cl)c1
vatalanib, 10 µM: Clc1ccc(Nc2nnc(Cc3ccncc3)c3ccccc23)cc1
ZM336372, 10 µM: Cc1ccc(NC(=O)c2cccc(N(C)C)c2)cc1NC(=O)c1ccc(O)cc1
KU-55933, 5 µM: O=c1cc(-c2cccc3c2Sc2ccccc2S3)oc(N2CCOCC2)c1
RKI-983, 2 µM: C[C@@H](N)c1ccc(C(=O)Nc2ccnc3[nH]ccc23)cc1
PLX4720, 0.4 µM: CCCS(=O)(=O)Nc1ccc(F)c(C(=O)c2c[nH]c3ncc(Cl)cc23)c1F
crizotinib, 1 µM: C[C@@H](Oc1cc(-c2cnn(C3CCNCC3)c2)cnc1N)c1c(Cl)ccc(F)c1Cl
enzastaurin, 4 µM: Cn1cc(C2=C(c3cn(C4CCN(Cc5ccccn5)CC4)c4ccccc34)C(=O)NC2=O)c2ccccc21
T0901317, 7 µM: O=S(=O)(c1ccccc1)N(CC(F)(F)F)c1ccc(C(O)(C(F)(F)F)C(F)(F)F)cc1
ENMD-2076, 0.2 µM: Cc1cc(Nc2cc(N3CCN(C)CC3)nc(/C=C/c3ccccc3)n2)n[nH]1
lestaurtinib, 0.02 µM: C[C@]12O[C@H](C[C@]1(O)CO)n1c3ccccc3c3c4c(c5c6ccccc6n2c5c31)CNC4=O
dasatinib, 0.02 µM: Cc1nc(Nc2ncc(C(=O)Nc3c(C)cccc3Cl)s2)cc(N2CCN(CCO)CC2)n1
GW441756, 2 µM: Cn1cc(/C=C2\C(=O)Nc3cccnc32)c2ccccc21
SNS-032, 0.05 µM: CC(C)(C)c1cnc(CSc2cnc(NC(=O)C3CCNCC3)s2)o1
embelin, 6 µM: CCCCCCCCCCCC1=C(O)C(=O)C=C(O)C1=O
tozasertib, 0.03 µM: Cc1cc(Nc2cc(N3CCN(C)CC3)nc(Sc3ccc(NC(=O)C4CC4)cc3)n2)n[nH]1
XAV939, 10 µM: Oc1nc(-c2ccc(C(F)(F)F)cc2)nc2c1CSCC2
tanespimycin, 0.01 µM: C=CCNC1=C2C[C@@H](C)C[C@H](OC)[C@H](O)[C@@H](C)/C=C(\C)[C@H](OC(N)=O)[C@@H](OC)/C=C\C=C(/C)C(=O)NC(=CC1=O)C2=O
perifosine, 2 µM: CCCCCCCCCCCCCCCCCCOP(=O)([O-])OC1CC[N+](C)(C)CC1
BI-78D3, 1 µM: O=c1[nH]nc(Sc2ncc([N+](=O)[O-])s2)n1-c1ccc2c(c1)OCCO2
pazopanib, 2 µM: Cc1ccc(Nc2nccc(N(C)c3ccc4c(C)n(C)nc4c3)n2)cc1S(N)(=O)=O
lenalidomide, 5 µM: Nc1cccc2c1CN(C1CCC(=O)NC1=O)C2=O (configuration not stated)
GSK650394, 0.8 µM: O=C(O)c1ccc(-c2c[nH]c3ncc(-c4ccccc4)cc23)cc1C1CCCC1
SNS-314, 0.004 µM: O=C(Nc1cccc(Cl)c1)Nc1ncc(CCNc2ncnc3ccsc23)s1
ruxolitinib, 5 µM: N#CC[C@H](C1CCCC1)n1cc(-c2ncnc3[nH]ccc23)cn1

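The test systems are human melanoma cell lines, treated with a pair of drugs for 72 h and then stained and imaged. The read-out is the fraction of cleaved-PARP-positive nuclei, in % of that fraction in the DMSO control; 200 means twice the control level of this apoptosis marker. Every drug was used at one fixed concentration, the higher of two screened. The file gives one value for each pair and line, without errors, so small differences may be noise. Basal and induced levels differ widely between cell lines.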
An unselected part of the screen is shown.

Second drug | UACC-62 | MZ2-MEL | COLO 800 | SK-MEL-5 | MEL-HO | COLO 829 | MeWo | C32 | LB2518-MEL | A2058 | IPC-298
enzastaurin | 249 | 46.7 | 51.8 | 98.7 | 107 | 159 | 52.3 | 192 | 268 | 188 | 88.8
crizotinib | 173 | 57.9 | 102 | 97.0 | 218 | 40.2 | 110 | 91.5 | 61.2 | 91.9 | 73.3
dasatinib | 50.6 | 90.8 | 278 | 762 | 54.6 | 151 | 79.6 | 121 | 42.3 | 209 | 32.2
tanespimycin | 239 | 87.3 | 80.2 | 95.4 | 77.5 | 59.7 | 58.1 | 728 | 56.4 | 108 | 76.0
lenalidomide | 148 | 49.6 | 64.5 | 149 | 86.6 | 37.8 | 61.3 | 130 | 62.9 | 166 | 84.5
lestaurtinib | 176 | 81.5 | 150 | 196 | 172 | 70.5 | 76.9 | 135 | 200 | 116 | 184
vatalanib | 343 | 268 | 389 | 132 | 177 | 182 | 349 | 183 | 64.0 | 242 | 59.1
PLX4720 | 289 | 77.8 | 274 | 530 | 150 | 81.8 | 77.6 | 102 | 29.8 | 74.9 | 85.3
GSK650394 | 35.2 | 71.7 | 109 | 128 | 63.1 | 123 | 85.4 | 171 | 163 | 114 | 95.9
SNS-314 | 78.6 | 125 | 105 | 128 | 86.5 | 42.9 | 89.6 | 370 | 151 | 232 | 48.4
ENMD-2076 | 242 | 209 | 38.2 | 92.0 | 104 | 120 | 147 | 103 | 99.3 | 284 | 101
GW441756 | 105 | 94.2 | 309 | 149 | 91.1 | 74.4 | 112 | 105 | 152 | 281 | 22.6
XAV939 | 37.9 | 113 | 172 | 90.5 | 55.7 | 99.5 | 128 | 87.0 | 62.8 | 153 | 42.9
embelin | 51.5 | 379 | 405 | 152 | 103 | 71.6 | 65.6 | 96.1 | 347 | 114 | 200
ZM336372 | 198 | 118 | 188 | 82.7 | 51.0 | 46.1 | 116 | 137 | 113 | 91.5 | 248
RKI-983 | 381 | 185 | 438 | 212 | 318 | 167 | 555 | 177 | 164 | 754 | 44.7
pazopanib | 255 | 67.2 | 182 | 36.4 | 168 | 137 | 78.1 | 91.4 | 47.1 | 130 | 99.0
perifosine | 206 | 87.1 | 116 | 50.0 | 217 | 88.7 | 79.3 | 187 | 112 | 147 | 94.1
ruxolitinib | 348 | 124 | 65.5 | 278 | 134 | 92.1 | 233 | 123 | 64.5 | 433 | 40.8
tozasertib | 245 | 62.6 | 330 | 70.8 | 162 | 26.3 | 37.3 | 114 | 220 | 151 | 71.8
T0901317 | 191 | 102 | 18.1 | 39.4 | 92.8 | 81.0 | 67.1 | 195 | 54.9 | 193 | 52.0
KU-55933 | 137 | 77.8 | 35.8 | 121 | 84.5 | 64.3 | 96.4 | 356 | 76.5 | 109 | 93.9
SNS-032 | 147 | 58.4 | 245 | 112 | 266 | 87.3 | 75.3 | 216 | 53.5 | 150 | 77.2
indole-3-carbinol | 254 | 150 | 98.0 | 196 | 79.4 | 148 | 152 | 173 | 166 | 262 | 179
vismodegib | 180 | 46.1 | 224 | 189 | 111 | 103 | 107 | 109 | 303 | 121 | 38.2
BI-78D3 | 263 | 150 | 210 | 190 | 82.3 | 209 | 162 | 94.4 | 307 | 112 | 109

Repeated from the top, 2 entries:

{"second drug": "enzastaurin", "UACC-62": 249, "MZ2-MEL": 46.7, "COLO 800": 51.8, "SK-MEL-5": 98.7, "MEL-HO": 107, "COLO 829": 159, "MeWo": 52.3, "C32": 192, "LB2518-MEL": 268, "A2058": 188, "IPC-298": 88.8}
{"second drug": "crizotinib", "UACC-62": 173, "MZ2-MEL": 57.9, "COLO 800": 102, "SK-MEL-5": 97.0, "MEL-HO": 218, "COLO 829": 40.2, "MeWo": 110, "C32": 91.5, "LB2518-MEL": 61.2, "A2058": 91.9, "IPC-298": 73.3}